PubChem BioAssay AID743454, Peter MacCallum Cancer Centre – 2014
The whole screen tested about 18,000 reagents; shown is an unselected part. 450 of them (2.5%) count as active. 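Single biological run; no consistent viability z cut-off exists, so the class columns, not z-scores, define the calls.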 A number with no mark means an inactive call. No sequences are given here.

Test: 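Genes whose loss kills vorinostat-resistant colon cancer cells under vorinostat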 (primary screen)
Cell system: human HCT116-VR colon cancer cells, selected for vorinostat resistance
Reagents: siRNA pool against human genes, 40 nM siRNA pool
Duration: vorinostat for 24 h, read-out about 72 h after transfection
Treatment: vorinostat at 2.5 µM final
Read-out: 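Cell viability by CellTiter-Fluor and caspase 3/7 activity by luminescence, each scaled to mock wells per plate, duplicates averaged, then robust z-scored over all plates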
Direction: viability robust z-score: higher = more viable cells than screen typical; caspase robust z-score: higher = more caspase 3/7 activity than screen typical
Call rule: 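Hits are knock-downs in viability class RV1/RV2 or caspase class CA1/CA2, excluding ones that killed cells in the no-drug cell-count arm; hits then retested with single siRNAs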

| Gene | viability hit class | caspase hit class | viability robust z-score | caspase robust z-score |
| --- | --- | --- | --- | --- |
| FN3KRP | no change (active) | CA1 (caspase activation) | 0.48 | 5.5 |
| CHMP5 | no change | no change | 0.78 | -0.15 |
| FCHO2 | no change | no change | -0.3 | -0.62 |
| OTOGL | no change | no change | 0.26 | -0.59 |
| IL20 | no change | no change | -1.36 | 0.1 |
| ISLR | no change | no change | -0.73 | 0.15 |
| PRPF8 | RV2 (reduced viability) (active) | no change | -3.36 | 0.54 |
| TRIM2 | no change | no change | -0.37 | -0.24 |
| AKNAD1 | no change | no change | -0.26 | -0.96 |
| MINDY1 | no change | no change | 1.16 | 0.26 |
| CSK | no change | no change | -0.48 | -0.11 |
| LNP1 | no change | no change | -0.31 | -0.02 |
| EMP1 | no change | no change | 1.18 | 0.02 |
| PTGER2 | no change | no change | -1.67 | 0.23 |
| CNR2 | no change | no change | -0.49 | -1.22 |
| HTR1D | no change | no change | 0.32 | -1.08 |
| FZD5 | no change | no change | 0.42 | 0.5 |

The list goes on; the last 2 above are carried over.
| Gene | viability hit class | caspase hit class | viability robust z-score | caspase robust z-score |
| --- | --- | --- | --- | --- |
| HTR1D | no change | no change | 0.32 | -1.08 |
| FZD5 | no change | no change | 0.42 | 0.5 |
| TOM1L2 | no change | no change | 0.64 | 1.03 |
| CCDC85A | no change | no change | 2.06 | 0.76 |
| TMEM130 | no change | no change | -0.72 | -0.45 |
| NARS2 | no change | no change | 0.26 | 1.05 |
| OS9 | no change | no change | 0.02 | -0.79 |
| POMT2 | no change | no change | -0.46 | 3.84 |
| CRMP1 | no change | no change | 1.06 | -0.02 |
| CHD4 | no change (active) | CA2 (caspase activation) | -4.95 | 6.46 |
| RNF10 | no change | no change | 0.3 | -0.52 |
| C16orf89 | no change | no change | 1.08 | -0.94 |
| HS3ST6 | no change | no change | -0.77 | -0.52 |
| ZNF460 | no change | no change | -0.38 | 0.26 |
| MCOLN2 | no change | no change | 0.06 | 2.64 |
| SPIRE1 | no change | no change | 0.08 | -1.13 |
| CHRM4 | no change | no change | 0.54 | -0.37 |
| VPS11 | no change (active) | CA2 (caspase activation) | -2.35 | 5.77 |
| COX6C | no change | no change | -0.96 | 1.93 |
| CHRNA2 | no change | no change | -0.62 | -0.6 |
| TMBIM1 | no change | no change | 1.12 | -0.71 |
| HSF2 | no change | no change | 1.02 | 1.86 |
| GNAL | no change | no change | -0.16 | 2.15 |
| PSPH | no change | no change | -0.84 | -0.4 |
